Experimental data: the supplement of paper PMC8728848
The list shows a part of the results.

Key:
Experiment in all cases: glycan array binding signal (z-score within array); higher = stronger binding
Details in all cases: glycan notation: IUPAC condensed, linker removed
[1] = target: GlcNAc(b1-2)Gal(b1-3)GalNAc
How it was run: (§1)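 The binding signal is a Z-score computed within each array and averaged over linkers. Arrays of the same protein sequence at different concentrations or buffers were also averaged together. Data originate from 3228 arrays in the Consortium for Functional Glycomics database, kept only where the protein sequence was available.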

[2] = target: GlcNAc(b1-2)Man(a1-3)[GlcNAc(b1-2)Man(a1-6)]Man(b1-4)GlcNAc(b1-4)GlcNAc
How it was run: as §1

GlcNAc(b1-3)Gal = target: GlcNAc(b1-3)Gal
How it was run: as §1

[3] = target: GlcNAc(b1-3)Gal(b1-3)GalNAc
How it was run: as §1

GlcNAc(b1-3)Gal(b1-4)Glc = target: GlcNAc(b1-3)Gal(b1-4)Glc
How it was run: as §1

[4] = target: GlcNAc(b1-3)Gal(b1-4)GlcNAc
How it was run: as §1

[5] = target: GlcNAc(b1-3)Gal(b1-4)GlcNAc(b1-3)Gal(b1-4)GlcNAc
How it was run: as §1

GlcNAc(b1-3)GalNAc = target: GlcNAc(b1-3)GalNAc
How it was run: as §1

[6] = target: GlcNAc(b1-3)[GlcNAc(b1-4)][GlcNAc(b1-6)]GlcNAc
How it was run: as §1

[7] = target: GlcNAc(b1-3)[GlcNAc(b1-6)]Gal(b1-4)GlcNAc
How it was run: as §1

[8] = target: GlcNAc(b1-3)[GlcNAc(b1-6)]GalNAc
How it was run: as §1

[9] = target: GlcNAc(b1-4)Gal(b1-4)GlcNAc
How it was run: as §1

[10] = target: GlcNAc(b1-4)GlcNAc(b1-4)GlcNAc
How it was run: as §1

[11] = target: GlcNAc(b1-4)GlcNAc(b1-4)GlcNAc(b1-4)GlcNAc(b1-4)GlcNAc
How it was run: as §1

[12] = target: GlcNAc(b1-4)GlcNAc(b1-4)GlcNAc(b1-4)GlcNAc(b1-4)GlcNAc(b1-4)GlcNAc
How it was run: as §1

[13] = target: GlcNAc(b1-4)[GlcNAc(b1-6)]GalNAc
How it was run: as §1

[14] = target: GlcNAc(b1-6)Gal(b1-4)GlcNAc
How it was run: as §1

GlcNAc(b1-6)GalNAc = target: GlcNAc(b1-6)GalNAc
How it was run: as §1

Kdn(a2-3)Gal(b1-3)GlcNAc = target: Kdn(a2-3)Gal(b1-3)GlcNAc
How it was run: as §1

Kdn(a2-3)Gal(b1-4)GlcNAc = target: Kdn(a2-3)Gal(b1-4)GlcNAc
How it was run: as §1

[15] = target: Man(a1-2)Man(a1-2)Man(a1-3)Man
How it was run: as §1

[16] = target: Man(a1-2)Man(a1-2)Man(a1-6)[Man(a1-3)]Man
How it was run: as §1

Man(a1-2)Man(a1-3)Man = target: Man(a1-2)Man(a1-3)Man
How it was run: as §1

[17] = target: Man(a1-2)Man(a1-3)[Man(a1-2)Man(a1-6)]Man
How it was run: as §1

[18] = target: Man(a1-2)Man(a1-3)[Man(a1-2)Man(a1-6)]Man(a1-6)[Man(a1-2)Man(a1-2)Man(a1-3)]Man(b1-4)GlcNAc(b1-4)GlcNAc
How it was run: as §1

[19] = target: Man(a1-2)Man(a1-3)[Man(a1-2)Man(a1-6)]Man(a1-6)[Man(a1-3)[Man(a1-6)]Man(a1-6)]Man(b1-4)GlcNAc(b1-4)GlcNAc
How it was run: as §1

[20] = target: Man(a1-2)Man(a1-3)[Man(a1-6)]Man(a1-6)[Man(a1-2)Man(a1-3)]Man(b1-4)GlcNAc(b1-4)GlcNAc
How it was run: as §1

[21] = target: Man(a1-2)Man(a1-6)[Man(a1-3)]Man(a1-6)[Man(a1-2)Man(a1-2)Man(a1-3)]Man(b1-4)GlcNAc(b1-4)GlcNAc
How it was run: as §1

Man(a1-3)[Man(a1-6)]Man = target: Man(a1-3)[Man(a1-6)]Man
How it was run: as §1

[22] = target: Man(a1-3)[Man(a1-6)]Man(a1-6)[Man(a1-3)]Man(b1-4)GlcNAc(b1-4)GlcNAc
How it was run: as §1

B1: SrpA (Streptococcus sanguis) (protein)
chain: SSKSESTVNSQSASSETNRSSTNNGSTSSSSETARVRKRRATDTTPPTITVPSDIIAYRGEEFEFYFEITDDSGQVKNIELSTFGKPLGLNWLEYSEDNFNVPGNATSDNPLRVRVHGTVPLNEPIPADKNRAQFTRTIRAWDAAGNVSSNITFVIKYRAQTDKYNPADPTITYVDRLSSLSPSEKNAVEAAVRAANPQIPAAARITVSANGTVTITYPDSSTDTITANRVVKDLASSRSALT
glycan array binding signal (z-score) [1]: -0.723 | glycan array binding signal (z-score) [2]: -0.43 | glycan array binding signal (z-score) (GlcNAc(b1-3)Gal): -0.658 | glycan array binding signal (z-score) [3]: 1.6 | glycan array binding signal (z-score) (GlcNAc(b1-3)Gal(b1-4)Glc): -0.622 | glycan array binding signal (z-score) [4]: -0.543 | glycan array binding signal (z-score) [5]: -0.324 | glycan array binding signal (z-score) (GlcNAc(b1-3)GalNAc): -0.713 | glycan array binding signal (z-score) [6]: -0.657 | glycan array binding signal (z-score) [7]: -0.387 | glycan array binding signal (z-score) [8]: -0.923 | glycan array binding signal (z-score) [9]: -0.791 | glycan array binding signal (z-score) [10]: -0.636 | glycan array binding signal (z-score) [11]: -0.834 | glycan array binding signal (z-score) [12]: -0.67 | glycan array binding signal (z-score) [13]: -0.162 | glycan array binding signal (z-score) [14]: -0.705 | glycan array binding signal (z-score) (GlcNAc(b1-6)GalNAc): -0.323 | glycan array binding signal (z-score) (Kdn(a2-3)Gal(b1-3)GlcNAc): 0.272 | glycan array binding signal (z-score) (Kdn(a2-3)Gal(b1-4)GlcNAc): -0.655 | glycan array binding signal (z-score) [15]: -0.723 | glycan array binding signal (z-score) [16]: -0.026 | glycan array binding signal (z-score) (Man(a1-2)Man(a1-3)Man): 0.288 | glycan array binding signal (z-score) [17]: -0.848 | glycan array binding signal (z-score) [18]: -0.332 | glycan array binding signal (z-score) [19]: -0.687 | glycan array binding signal (z-score) [20]: 0.797 | glycan array binding signal (z-score) [21]: -1.05 | glycan array binding signal (z-score) (Man(a1-3)[Man(a1-6)]Man): -0.094 | glycan array binding signal (z-score) [22]: 1.57
